Experimental data taken from patent US20240226066A1, “CARDIOPROTECTION BY AUTOPHAGY INDUCTION AND METABOLIC REPROGRAMMING” (UNIVERSITE PARIS-SACLAY, priority 2021, published 2024).
At least one compound was matched to its structure with a doubt left.

Assays:
Type in all cases: cell-based, rat
H9C2 cells [1] = assay: Seahorse XF Cell Mito stress test (OCR); details: independently of the substrates
Description: FIG. 8B: the H9c2 cells were treated with the compounds for 6 h, then a mitochondrial respiration stress test was carried out.
The XFe96 extracellular flow analyzer (Seahorse Biosciences, North Billerica, MA, USA) was used to measure the bioenergetic function of H9C2 cardiomyocytes. The H9C2 cells were seeded at 20 000 cells per well in XF96 cell culture microplates; all the pretreatments were carried out with serum-free cell culture medium. The Agilent Seahorse XF glycolysis stress test was performed to measure glycolytic function in the H9C2 cells; the extracellular acidification rate (ECAR) was measured sequentially by 3 injections, 10 mM glucose, 2 μM oligomycin and 50 mM 2-deoxy-D-glucose (2-DG). The Agilent Seahorse XF Cell Mito stress test measured key parameters of mitochondrial function by directly measuring the oxygen consumption rate (OCR) of the H9C2 cells. The test used the built-in injection ports on XF sensor cartridges to add respiration modulators into the cell well during the test in order to reveal key parameters of mitochondrial function. Oligomycin at 2 μM was injected first after the baseline measurements. […] The oxidation of the exogenous fatty acids was measured simultaneously using the XF palmitate-BSA FAO substrate kit with the mitochondrial stress test on XF cells. […]
Next, the energy metabolism was analyzed in real time using the Seahorse technology in H9C2 cells.

RNVCs [2] = assay: Mitochondrial ROS production with MitoSOX fluorescent probe; details: 3 μM, 6 h
Description: FIG. 12: The RNVCs were treated with 0.1% DMSO, 3 μM rapamycin, 1 μM digitoxigenin, 1 μM digoxin, 1 μM minaprin, 1 μM VP331, 1 μM LOPA87, 10 μM SG6163F for 6 h, then the ROS production was stained with the MitoSOX fluorescent probe.
The RNVCs were treated with 0.01% DMSO, 3 μM rapamycin, […], 1 μM digoxin, 1 μM minaprine, 1 μM VP331, 1 μM LOPA87, 10 μM SG6163F in a serum-free cell culture medium for 6 hours. The contents (50 μg) of a MitoSOX™ mitochondrial superoxide indicator vial (ThermoFisher, M36008) were dissolved in 13 μl dimethyl sulfoxide (DMSO) to prepare a 5 mM MitoSOX™ reagent stock solution. Next, the 5 mM MitoSOX™ reagent stock solution in PBS was diluted to prepare a 5 μM working solution of MitoSOX™ reagent. After treatment, the cells were rinsed twice with hot PBS and then incubated with a MitoSOX reagent working solution for 10 minutes at 37° C. The cells were gently rinsed three times with hot PBS. Red fluorescence was detected with a Leica confocal microscope. Nuclear fluorescence was suppressed and mitochondrial fluorescence intensity was measured using ImageJ software.
ROSs are produced or accumulated as a by-product of mitochondrial activity metabolism. Thus, the ROSs may be a consequence of mitochondrial function or may reflect a defect in the mitochondrial antioxidant system.

BCL-2 = assay: Western blot of BCL-2 expression in RNVCs; details: reference molecule
RNVCs [3] = assay: Mitochondrial network and cell volume by confocal microscopy (Mitotracker, calcein-AM, IMARIS); details: 3 μM
Description: FIG. 6. Effects on mitochondrial dynamics by fluorescence microscopy The RNVCs were treated with 1 μM hits (FIG. 6A) and 10 μM hits (FIG. 6B) for 6 h and the mitochondrial network was stained with 200 nM of Mitotracker. The mitochondrial network and individual mitochondria were then analyzed using a Leica confocal microscope and IMARIS software. Data are presented as mean±SEM with single-factor ANOVA, and multiple Sidak comparisons. *, p<0.05, **, p<0.01, ***, p<0.001 with respect to DMSO.
FIG. 11: following the treatment of the RNVCs with the compounds as indicated, the cell volume was stained with 4 μM of calcein-AM. The cell volume was then analyzed using the IMARIS software.
Confocal microscopy. On day 0, 4×10^5 neonatal cardiomyocytes were plated overnight on laminin-coated 35 mm culture dishes (10 μg/ml). […] The mitochondrial network and the 3D model of cell volume were reconstructed using the IMARIS software (Bitplane Company, Zurich, Switzerland); therefore the cell volume, mitochondrial number and volume were analyzed.
Due to the importance of mitochondria and reactive oxygen species (ROS) levels in the fate of cardiomyocyte cells, the hypothesis that the compounds could impact the mitochondrial network was explored. […] Thus, the mitochondrial network and the individual mitochondria were then analyzed using the IMARIS software.

H9C2 cells [4] = assay: Seahorse XF glycolysis stress test (ECAR); details: 6 h treatment

CO[C@H]1C[C@@H]2CC[C@@H](C)[C@@](O)(O2)C(=O)C(=O)N2CCCC[C@H]2C(=O)O[C@H]([C@H](C)C[C@@H]2CC[C@@H](O)[C@H](OC)C2)CC(=O)[C@H](C)/C=C(\C)[C@@H](O)[C@@H](OC)C(=O)[C@H](C)C[C@H](C)/C=C/C=C/C=C/1C [rapamycin]
OXPHOS (H9C2 cells [1]): decreased it | local level of mitochondrial superoxide anion (RNVCs [2]): induced an elevation | expression of BCL 2 family members (BCL-2): showed no effect | mitochondrial mass (RNVCs [3]): decreased the mitochondrial mass | extracellular acidification (ECAR) (H9C2 cells [4]): with the exception of
